# Measured values: patent publication US10272110B2, “Methods for promoting HSC engraftment” (CHILDREN'S MEDICAL CENTER CORPORATION, priority 2006, dated 2019)
# For at least one compound, name, drawing or mass did not settle the structure.
# Test system: runx1/cmyb+ AGM HSCs
# Conditions: exposure from three somites to 36 hpf; runx1/cmyb staining
# Description: A chemical genetic screen was conducted to identify novel pathways that modulate definitive HSC formation during zebrafish embryogenesis. FIG. 1. Genes such as runx1 and cmyb, required for HSC development during mammalian hematopoiesis, are expressed in the ventral wall of the dorsal aorta in a region analogous to the mammalian AGM at thirty-six hours post-fertilization (hpf). […] Wild-type embryos were incubated with individual compounds from the three-somite stage until thirty-six hpf. Probes for runx1 and cmyb were combined and utilized to detect HSCs by in situ hybridization.
# Wild-type age-matched embryos were arrayed into 48-well plates (˜5 embryos/well) of individual test compounds and exposed from 3-somites until 36 hpf. […] In situ hybridization for runx1 and cmyb was performed to assess HSCs. Compounds were retested at 10 μM, 20 μM, and 50 μM. Stem cell specificity was assessed using flk1 at 36 hpf. PGE2, PGI2, dmPGE2 and all cox inhibitors (Sigma) were used at 10 μM to 20 μM.
# Qualitative scoring (# embryos with altered HSCs/# scored) of runx1/cmyb was conducted using the following criteria: Normal/unchanged=continuous line of runx1/cmyb+ endothelial cells and occasional hematopoietic clusters. Decreased/absent=reduction in runx1/cmyb+ cells, including the presence of large gaps in the line of HSCs, isolated positive cells, or absence of expression. […]
structure (smiles),measurement,value
COC[C@H]1OC(=O)c2coc3c2[C@@]1(C)C1=C(C3=O)[C@@H]2CCC(=O)[C@@]2(C)C[C@H]1OC(C)=O [Wortmannin],effect on AGM HSCs in zebrafish embryos (in words),inhibit HCS
